Assay results: patent publication US20040077591A1, “Histone deacetylase inhibitors for the treatment of multiple sclerosis, amyotrophic lateral sclerosis and Alzheimer's Disease” (The Brigham and Women's Hospital, Inc., priority 2002, published 2004)
At least one compound was matched to its structure with a doubt left.

Tested on: experimental autoimmune encephalomyelitis (EAE) in mice
Test: MOG-induced EAE in mice, clinical disability scoring
Type: in vivo, C57BL/6 female mice
Conditions: TSA 7.5 mg/kg/dose/d i.p. from day 4; two separate exp. pooled
Excerpt: FIG. 1—Efficacy of HDAC inhibitor treatment in reducing the clinical manifestations of experimental autoimmune encephalomyelitis (EAE) in mice. Mean clinical scores reflect reduced clinical disability by TSA in the neurodegenerative phase of EAE (● TSA-treated; ◯ vehicle-treated) (*P<0.05 by Fisher's protected least significant difference (PLSD) test). The remission phase lasted from days 19 to 34 following disease induction in a first experiment, days 21 to 32 in a second experiment. Animals were scored for signs of disability using the following widely used scale: 1, limp tail or isolated weakness of gait without limp tail; 2, partial hind leg paralysis; 3, total hind leg or partial hind and front leg paralysis and/or urinary incontinence; 4, total hind leg and partial front leg paralysis; 5, moribund or dead animal (with minor modifications from Issazadeh et al. (1998)). The definitions used were: (1) mean peak remission: mean of maximal score reached during remission, and (2) mean % days of severity: mean % of days with scores ≧2.
Experimental autoimmune encephalomyelitis (EAE) is the most widely accepted animal model for multiple sclerosis. […] Medications that currently modify the disease course in humans also modify the disease course in the animal model. […]

CC(/C=C/C(=O)NO)=C\[C@@H](C)C(=O)c1ccc(N(C)C)cc1 [TSA, Trichostatin A]
Mortality (Clinical EAE): 2/24 (8.3%)
